Data from patent US20040142357A1.
No constants are given. Whether binding was seen depends on the method and setting. For some assays here: In cells and extracts the contact can be indirect. Some binding calls cover weakened binding; strength is not graded here. For some assays here: Sequences can lack the tags named with a protein.

By UniProt entry, the sequences of proteins in these tests, tags left out. Where a name states a change or a piece, a line headed by the entry shows the natural chain unless it says otherwise.
UniProt P54274: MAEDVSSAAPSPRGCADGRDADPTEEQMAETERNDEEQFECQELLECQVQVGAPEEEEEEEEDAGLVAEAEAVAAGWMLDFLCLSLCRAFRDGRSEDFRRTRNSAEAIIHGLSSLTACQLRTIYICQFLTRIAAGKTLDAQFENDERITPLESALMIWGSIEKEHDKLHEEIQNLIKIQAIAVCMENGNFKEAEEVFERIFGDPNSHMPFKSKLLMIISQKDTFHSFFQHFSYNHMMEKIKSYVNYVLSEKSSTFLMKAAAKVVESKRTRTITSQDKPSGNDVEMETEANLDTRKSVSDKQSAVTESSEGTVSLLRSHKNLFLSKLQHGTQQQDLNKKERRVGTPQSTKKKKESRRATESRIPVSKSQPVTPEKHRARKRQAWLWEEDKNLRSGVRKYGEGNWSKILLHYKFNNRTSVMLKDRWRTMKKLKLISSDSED
UniProt O14746: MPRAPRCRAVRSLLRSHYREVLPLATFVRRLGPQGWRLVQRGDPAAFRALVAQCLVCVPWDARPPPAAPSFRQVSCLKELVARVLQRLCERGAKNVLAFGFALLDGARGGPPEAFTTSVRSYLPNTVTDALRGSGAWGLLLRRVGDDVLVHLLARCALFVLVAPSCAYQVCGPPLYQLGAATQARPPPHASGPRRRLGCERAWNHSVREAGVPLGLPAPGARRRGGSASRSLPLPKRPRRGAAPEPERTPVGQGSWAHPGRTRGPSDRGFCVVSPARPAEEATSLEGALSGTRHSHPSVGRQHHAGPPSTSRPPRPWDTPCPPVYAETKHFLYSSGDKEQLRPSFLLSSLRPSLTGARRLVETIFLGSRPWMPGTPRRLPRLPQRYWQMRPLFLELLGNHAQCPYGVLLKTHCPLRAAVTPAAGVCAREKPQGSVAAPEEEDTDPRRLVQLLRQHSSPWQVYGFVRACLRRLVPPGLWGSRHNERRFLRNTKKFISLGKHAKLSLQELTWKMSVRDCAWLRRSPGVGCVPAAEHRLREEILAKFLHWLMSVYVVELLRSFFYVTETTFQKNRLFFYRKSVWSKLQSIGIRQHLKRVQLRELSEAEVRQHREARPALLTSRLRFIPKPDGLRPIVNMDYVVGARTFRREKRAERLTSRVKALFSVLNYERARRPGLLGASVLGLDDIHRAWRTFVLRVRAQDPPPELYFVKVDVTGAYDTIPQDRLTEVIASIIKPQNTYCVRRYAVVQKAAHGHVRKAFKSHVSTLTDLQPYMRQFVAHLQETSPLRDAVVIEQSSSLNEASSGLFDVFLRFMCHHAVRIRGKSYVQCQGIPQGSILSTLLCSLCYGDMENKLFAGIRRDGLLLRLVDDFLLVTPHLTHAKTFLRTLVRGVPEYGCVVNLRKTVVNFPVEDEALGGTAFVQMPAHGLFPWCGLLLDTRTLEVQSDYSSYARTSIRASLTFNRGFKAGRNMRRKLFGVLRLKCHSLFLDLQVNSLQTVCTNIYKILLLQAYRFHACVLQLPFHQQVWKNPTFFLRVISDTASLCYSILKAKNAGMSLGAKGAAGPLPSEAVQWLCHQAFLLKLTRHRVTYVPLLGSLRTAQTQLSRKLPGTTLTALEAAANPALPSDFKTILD

Columns and labels:
[1] = biological target: Pin2 isoform of Pin2/TRF1 fused to the GAL4 DNA-binding domain (pAS2 vector, yeast two-hybrid bait) (human); assay: yeast two-hybrid screen, Pin2 bait against a HeLa cDNA library, His and LacZ screening
[2] = biological target: Pin2 (expressed from the Pin2 expression construct in HeLa cells) (human) (UniProt P54274); assay: co-immunoprecipitation from co-transfected HeLa cells, anti-PinX1 IP, anti-Pin2/TRF1 immunoblot
[3] = biological target: Pin2 (expressed from the Pin2 expression construct in HeLa cells) (human) (UniProt P54274); assay: co-immunoprecipitation from co-transfected HeLa cells, anti-PinX1 IP, anti-Pin2 immunoblot
[4] = biological target: 35S-hTERT (human TERT synthesized by in vitro transcription and translation) (human) (UniProt O14746); assay: GST pulldown of in vitro translated protein, autoradiography
[5] = biological target: [35S]-Pin2 (Pin2 synthesized by in vitro transcription and translation) (human) (UniProt P54274); assay: as above
[6] = biological target: hTERT (telomerase catalytic subunit, as named without its construct in legends and sentences on FIG. 7A-C) (human) (UniProt O14746); assay: GST pulldown (FIG. 7A-C)
[7] = biological target: GFP-hTERT (human TERT produced in cells as a GFP fusion protein) (human) (UniProt O14746); assay: GST pulldown from cell extracts, immunoblot with anti-GFP
[8] = biological target: hTERT (telomerase catalytic subunit, as named without its construct in legends and sentences on FIG. 7A-C) (human) (UniProt O14746); assay: GST pulldown of HA-hTERT, GFP-hTERT or 35S-hTERT
[9] = biological target: HA-hTERT (human TERT produced in cells as a HA epitope tagged protein) (human) (UniProt O14746); assay: GST pulldown from cell extracts, immunoblot with anti-HA

Measured: binding

B1: Tin2 clone from the HeLa cDNA library fused to the GAL4 activation domain (yeast two-hybrid prey) (protein, UniProt Q9BSI4-2 1-354, looked up, not shown: large carriers)
chain: MATPLVAGPAALRFAAAASWQVVRGRCVEHFPRVLEFLRSLRAVAPGLVRYRHHERLCMGLKAKVVVELILQGRPWAQVLKALNHHFPESGPIVRDPKATKQDLRKILEAQETFYQQVKQLSEAPVDLASKLQELEQEYGEPFLAAMEKLLFEYLCQLEKALPTPQAQQLQDVLSWMQPGVSITSSLAWRQYGVDMGWLLPECSVTDSVNLAEPMEQNPPQQQRLALHNPLPKAKPGTHLPQGPSSRTHPEPLAGRHFNLAPLGRRRVQSQWASTRGGHKERPTVMLFPFRNLGSPTQVISKPESKEEHAIYTADLAMGTRAASTGKSKSPCQTLGGRALKENPVDLPATEQKE
binds: [1]

B2: PinX1 (endogenous 45 kDa protein of HeLa cells, or expressed from the PinX1 expression construct in HeLa cells) (protein)
chain: MSMLAERRRKQKWAVDPQNTAWSNDDSKFGQRMLEKMGWSKGKGLGAQEQGATDHIKVQVKNNHLGLGATINNEDNWIAHQDDFNQLLAELNTCHGQETTDSSDKKEKKSFSLEEKSKISKNRVHYMKFTKGKDLSSRSKTDLDCIFGKRQSKKTPEGDASPSTPEENETTTTSAFTIQEYFAKPVAALKNKPQVPVPGSDISETQVERKRGKKRNKEATGKDVESYLQPKAKRHTEGKPERAEAQERVAKKKCAPAEKQLRGPCWDQSSKASAQDAGDHVQPPEGRDFTLKPKKRRGKKKLQKPVEIAEDATLEETLVKKKKKKDSK
binds: [2] | [3]

B3: GST-PinX1 (N-terminal GST fusion of full length PinX1) (protein, not shown: a dimerising Fc or GST)
chain: B2 chain
not listed: [1] | [2] | [3]
binds: all other assays above

B4: PinX1 clones from the HeLa cDNA library fused to the GAL4 activation domain (yeast two-hybrid prey) (protein, not shown: large carriers)
chain: B2 chain
binds: [1]

B5: GST-PinX1-C (GST fusion of the C-terminal 74 amino acid fragment of PinX1, the telomerase inhibitory domain TID) (protein, not shown: a dimerising Fc or GST)
chain: CAPAEKQLRGPCWDQSSKASAQDAGDHVQPPEGRDFTLKPKKRRGKKKLQKPVEIAEDATLEETLVKKKKKKDSK
binds: [4] | [6] | [7] | [8] | [9]

B6: GST-PinX1-N (GST fusion of the N-terminal 142 amino acid fragment of PinX1) (protein, not shown: a dimerising Fc or GST)
chain: MSMLAERRRKQKWAVDPQNTAWSNDDSKFGQRMLEKMGWSKGKGLGAQEQGATDHIKVQVKNNHLGLGATINNEDNWIAHQDDFNQLLAELNTCHGQETTDSSDKKEKKSFSLEEKSKISKNRVHYMKFTKGKDLSSRSKTD
binds: [4] | [6] | [7] | [8] | [9]
